Measured values from paper PMC9509566.
These are yes or no findings as the source states them, for the method shown. In cells and extracts the contact can be indirect. Some binding calls cover weakened binding; strength is not graded here.

Chains of the proteins cited; added tags and fusions are not shown.
UniProt P06241: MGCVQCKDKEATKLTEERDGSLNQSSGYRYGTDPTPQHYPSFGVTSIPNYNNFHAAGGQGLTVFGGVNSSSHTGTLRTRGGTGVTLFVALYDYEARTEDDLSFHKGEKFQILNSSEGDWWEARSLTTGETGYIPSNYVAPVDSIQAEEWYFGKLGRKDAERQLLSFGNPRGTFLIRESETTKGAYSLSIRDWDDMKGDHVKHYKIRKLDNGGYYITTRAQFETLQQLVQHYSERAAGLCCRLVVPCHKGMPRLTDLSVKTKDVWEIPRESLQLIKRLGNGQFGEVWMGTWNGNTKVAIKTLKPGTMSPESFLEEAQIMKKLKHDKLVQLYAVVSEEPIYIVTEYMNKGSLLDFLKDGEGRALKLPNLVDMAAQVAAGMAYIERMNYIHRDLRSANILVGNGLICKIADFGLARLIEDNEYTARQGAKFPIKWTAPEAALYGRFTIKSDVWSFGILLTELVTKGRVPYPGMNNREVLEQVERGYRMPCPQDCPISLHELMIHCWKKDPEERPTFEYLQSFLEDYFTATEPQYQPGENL

Target: Fyn (human (endogenous in NK-92)) (UniProt P06241)
Test: co-IP; endogenous proteins; lysates (IP lysis buffer with protease inhibitors) of NK-92 cells, uninfected, T. gondii infected, or infected and treated with anti-2B4 antibody; IP with 1 ug anti-2B4, anti-SHP-2 or anti-Fyn antibody at 4 C overnight, protein A/G-agarose beads, Western blot

B1: 2B4 (CD244) (receptor, UniProt Q9BZW8 22-370)
chain: CQGSADHVVSISGVPLQLQPNSIQTKVDSIAWKKLLPSQNGFHHILKWENGSLPSNTSNDRFSFIVKNLSLLIKAAQQQDSGLYCLEVTSISGKVQTATFQVFVFESLLPDKVEKPRLQGQGKILDRGRCQVALSCLVSRDGNVSYAWYRGSKLIQTAGNLTYLDEEVDINGTHTYTCNVSNPVSWESHTLNLTQDCQNAHQEFRFWPFLVIIVILSALFLGTLACFCVWRRKRKEKQSETSPKEFLTIYEDVKDLKTRRNHEQEQTFPGGGSTIYSMIQSQSSAPTSQEPAYTLYSLIQPSRKSGSRKRNHSPSFNSTIYEVIGKSQPKAQNPARLSRKELENFDVYS
binding: binds
